Measurements taken from the supplement of paper PMC10849652.
This is one part of the list.

By UniProt entry, the sequences of proteins in these tests, tags left out. Where a name states a change or a piece, a line headed by the entry shows the natural chain unless it says otherwise.
UniProt Q9BTF0: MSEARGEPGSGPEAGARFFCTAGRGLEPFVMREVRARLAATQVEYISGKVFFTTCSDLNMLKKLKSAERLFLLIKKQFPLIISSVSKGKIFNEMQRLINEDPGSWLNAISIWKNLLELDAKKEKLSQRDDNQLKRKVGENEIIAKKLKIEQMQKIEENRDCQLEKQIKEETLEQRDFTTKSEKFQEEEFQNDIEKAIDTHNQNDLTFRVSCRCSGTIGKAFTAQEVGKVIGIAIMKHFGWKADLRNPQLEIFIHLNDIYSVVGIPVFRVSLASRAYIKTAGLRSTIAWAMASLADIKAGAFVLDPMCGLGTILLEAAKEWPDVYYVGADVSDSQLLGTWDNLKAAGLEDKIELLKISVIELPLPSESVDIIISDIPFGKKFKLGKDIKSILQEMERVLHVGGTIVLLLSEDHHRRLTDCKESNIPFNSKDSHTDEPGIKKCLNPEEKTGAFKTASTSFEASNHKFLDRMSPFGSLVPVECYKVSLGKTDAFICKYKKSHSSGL
UniProt Q92734, whole entry, looked up: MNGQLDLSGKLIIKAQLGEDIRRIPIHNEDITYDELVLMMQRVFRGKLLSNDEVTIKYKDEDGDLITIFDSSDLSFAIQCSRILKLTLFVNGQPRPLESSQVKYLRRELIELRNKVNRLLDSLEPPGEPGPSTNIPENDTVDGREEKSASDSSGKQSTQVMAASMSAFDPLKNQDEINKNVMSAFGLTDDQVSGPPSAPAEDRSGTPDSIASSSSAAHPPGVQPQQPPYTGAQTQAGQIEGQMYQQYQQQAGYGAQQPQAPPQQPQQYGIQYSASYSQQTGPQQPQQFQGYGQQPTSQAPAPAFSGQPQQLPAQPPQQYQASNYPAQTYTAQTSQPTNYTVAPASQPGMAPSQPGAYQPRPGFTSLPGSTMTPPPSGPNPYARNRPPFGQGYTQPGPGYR
UniProt Q9NU19: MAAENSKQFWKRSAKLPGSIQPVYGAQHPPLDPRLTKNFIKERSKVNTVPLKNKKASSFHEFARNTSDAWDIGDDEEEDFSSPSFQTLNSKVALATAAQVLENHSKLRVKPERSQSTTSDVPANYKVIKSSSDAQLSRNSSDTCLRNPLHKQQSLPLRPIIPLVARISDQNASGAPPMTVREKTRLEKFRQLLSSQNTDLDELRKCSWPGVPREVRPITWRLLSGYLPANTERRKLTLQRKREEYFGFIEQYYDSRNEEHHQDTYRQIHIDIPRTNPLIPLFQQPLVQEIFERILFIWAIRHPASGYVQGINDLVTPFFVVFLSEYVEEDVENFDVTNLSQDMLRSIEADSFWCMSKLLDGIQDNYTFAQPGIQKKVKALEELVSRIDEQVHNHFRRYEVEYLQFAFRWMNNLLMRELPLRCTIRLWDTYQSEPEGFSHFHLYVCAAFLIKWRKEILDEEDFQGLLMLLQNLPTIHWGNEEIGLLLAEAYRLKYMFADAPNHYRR
UniProt Q9NWX6: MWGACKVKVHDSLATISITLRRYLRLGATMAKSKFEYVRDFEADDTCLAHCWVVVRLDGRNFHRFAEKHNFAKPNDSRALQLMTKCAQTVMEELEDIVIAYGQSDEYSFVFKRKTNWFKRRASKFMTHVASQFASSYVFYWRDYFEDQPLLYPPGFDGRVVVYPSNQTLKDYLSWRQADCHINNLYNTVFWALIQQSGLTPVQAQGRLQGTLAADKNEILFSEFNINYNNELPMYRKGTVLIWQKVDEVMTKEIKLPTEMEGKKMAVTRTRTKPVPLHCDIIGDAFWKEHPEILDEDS
UniProt P21980: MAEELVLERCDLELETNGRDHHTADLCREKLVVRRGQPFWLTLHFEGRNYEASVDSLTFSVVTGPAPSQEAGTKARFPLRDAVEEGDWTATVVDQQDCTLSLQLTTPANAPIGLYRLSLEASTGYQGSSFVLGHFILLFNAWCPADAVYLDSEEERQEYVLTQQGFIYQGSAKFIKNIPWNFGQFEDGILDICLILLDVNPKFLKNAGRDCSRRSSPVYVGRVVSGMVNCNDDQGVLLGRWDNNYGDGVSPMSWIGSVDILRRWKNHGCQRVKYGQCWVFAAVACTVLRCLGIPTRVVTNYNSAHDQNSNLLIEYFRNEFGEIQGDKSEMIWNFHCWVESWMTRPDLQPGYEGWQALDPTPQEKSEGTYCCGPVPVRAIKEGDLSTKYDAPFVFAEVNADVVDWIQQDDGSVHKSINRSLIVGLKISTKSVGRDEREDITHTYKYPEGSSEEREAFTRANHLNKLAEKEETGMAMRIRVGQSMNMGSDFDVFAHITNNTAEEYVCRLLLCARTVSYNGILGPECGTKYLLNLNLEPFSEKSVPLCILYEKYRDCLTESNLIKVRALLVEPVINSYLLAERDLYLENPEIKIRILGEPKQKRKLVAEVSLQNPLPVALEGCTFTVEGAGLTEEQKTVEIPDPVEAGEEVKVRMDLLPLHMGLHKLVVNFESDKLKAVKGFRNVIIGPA
UniProt O43493: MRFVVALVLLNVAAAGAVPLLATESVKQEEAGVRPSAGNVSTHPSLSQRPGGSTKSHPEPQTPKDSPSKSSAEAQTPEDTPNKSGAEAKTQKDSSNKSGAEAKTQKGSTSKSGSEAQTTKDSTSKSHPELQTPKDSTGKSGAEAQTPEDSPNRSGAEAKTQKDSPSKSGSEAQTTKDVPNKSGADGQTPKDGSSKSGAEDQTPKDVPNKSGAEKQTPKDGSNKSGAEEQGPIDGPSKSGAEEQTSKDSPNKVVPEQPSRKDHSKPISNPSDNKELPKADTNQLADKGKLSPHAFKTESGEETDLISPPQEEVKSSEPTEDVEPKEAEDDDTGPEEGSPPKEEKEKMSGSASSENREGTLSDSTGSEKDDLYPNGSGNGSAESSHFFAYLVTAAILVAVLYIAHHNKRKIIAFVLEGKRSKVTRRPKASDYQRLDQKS
UniProt Q9BV44: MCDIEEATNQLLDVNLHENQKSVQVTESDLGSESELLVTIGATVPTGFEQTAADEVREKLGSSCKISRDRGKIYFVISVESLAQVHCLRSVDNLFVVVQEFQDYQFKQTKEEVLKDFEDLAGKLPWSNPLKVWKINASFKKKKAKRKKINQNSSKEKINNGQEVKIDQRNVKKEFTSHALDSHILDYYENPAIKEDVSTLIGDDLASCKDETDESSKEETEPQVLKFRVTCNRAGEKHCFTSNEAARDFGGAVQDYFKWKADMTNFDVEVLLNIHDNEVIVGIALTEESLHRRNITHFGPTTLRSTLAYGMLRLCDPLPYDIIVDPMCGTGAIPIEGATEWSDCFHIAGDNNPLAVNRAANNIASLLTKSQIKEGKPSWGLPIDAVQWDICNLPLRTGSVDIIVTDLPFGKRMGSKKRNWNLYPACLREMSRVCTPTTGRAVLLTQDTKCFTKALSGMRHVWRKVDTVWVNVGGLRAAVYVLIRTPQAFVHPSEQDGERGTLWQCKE
UniProt Q15554: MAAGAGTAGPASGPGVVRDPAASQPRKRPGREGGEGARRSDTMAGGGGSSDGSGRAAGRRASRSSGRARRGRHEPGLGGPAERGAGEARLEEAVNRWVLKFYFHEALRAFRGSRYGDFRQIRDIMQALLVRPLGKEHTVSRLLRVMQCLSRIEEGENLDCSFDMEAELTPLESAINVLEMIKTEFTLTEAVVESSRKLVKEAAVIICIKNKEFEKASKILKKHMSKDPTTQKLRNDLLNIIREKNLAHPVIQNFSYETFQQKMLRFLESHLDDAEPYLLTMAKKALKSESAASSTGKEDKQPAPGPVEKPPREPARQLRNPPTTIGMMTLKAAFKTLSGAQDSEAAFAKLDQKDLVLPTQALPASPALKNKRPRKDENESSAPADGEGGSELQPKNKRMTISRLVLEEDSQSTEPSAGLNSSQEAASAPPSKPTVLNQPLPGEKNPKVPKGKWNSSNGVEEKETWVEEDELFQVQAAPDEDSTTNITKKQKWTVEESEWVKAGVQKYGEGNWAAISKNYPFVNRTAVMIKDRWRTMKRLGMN
UniProt O14925: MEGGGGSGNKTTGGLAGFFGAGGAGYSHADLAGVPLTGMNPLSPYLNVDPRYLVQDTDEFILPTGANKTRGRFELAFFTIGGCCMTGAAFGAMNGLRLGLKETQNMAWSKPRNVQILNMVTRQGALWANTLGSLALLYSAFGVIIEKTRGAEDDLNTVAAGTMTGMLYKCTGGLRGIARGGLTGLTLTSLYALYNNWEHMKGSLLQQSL
UniProt Q96FV9: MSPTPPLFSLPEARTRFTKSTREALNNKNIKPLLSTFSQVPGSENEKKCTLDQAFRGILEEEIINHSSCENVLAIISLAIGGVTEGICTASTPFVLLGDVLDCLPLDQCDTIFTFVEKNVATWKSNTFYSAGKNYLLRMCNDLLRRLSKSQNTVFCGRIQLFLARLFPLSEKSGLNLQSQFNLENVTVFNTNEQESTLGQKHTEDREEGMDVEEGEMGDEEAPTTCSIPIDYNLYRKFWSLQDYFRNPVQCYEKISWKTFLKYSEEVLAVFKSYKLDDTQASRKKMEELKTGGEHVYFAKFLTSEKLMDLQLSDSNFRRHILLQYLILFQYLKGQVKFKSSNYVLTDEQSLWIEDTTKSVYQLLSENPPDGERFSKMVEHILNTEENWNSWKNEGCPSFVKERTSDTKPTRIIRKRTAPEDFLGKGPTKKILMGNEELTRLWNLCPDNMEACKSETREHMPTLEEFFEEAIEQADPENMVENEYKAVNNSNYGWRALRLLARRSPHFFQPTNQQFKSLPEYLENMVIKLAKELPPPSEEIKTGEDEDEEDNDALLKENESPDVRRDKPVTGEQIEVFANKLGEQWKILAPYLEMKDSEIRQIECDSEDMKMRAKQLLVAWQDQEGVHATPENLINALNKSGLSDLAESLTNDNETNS
UniProt Q5JTD0: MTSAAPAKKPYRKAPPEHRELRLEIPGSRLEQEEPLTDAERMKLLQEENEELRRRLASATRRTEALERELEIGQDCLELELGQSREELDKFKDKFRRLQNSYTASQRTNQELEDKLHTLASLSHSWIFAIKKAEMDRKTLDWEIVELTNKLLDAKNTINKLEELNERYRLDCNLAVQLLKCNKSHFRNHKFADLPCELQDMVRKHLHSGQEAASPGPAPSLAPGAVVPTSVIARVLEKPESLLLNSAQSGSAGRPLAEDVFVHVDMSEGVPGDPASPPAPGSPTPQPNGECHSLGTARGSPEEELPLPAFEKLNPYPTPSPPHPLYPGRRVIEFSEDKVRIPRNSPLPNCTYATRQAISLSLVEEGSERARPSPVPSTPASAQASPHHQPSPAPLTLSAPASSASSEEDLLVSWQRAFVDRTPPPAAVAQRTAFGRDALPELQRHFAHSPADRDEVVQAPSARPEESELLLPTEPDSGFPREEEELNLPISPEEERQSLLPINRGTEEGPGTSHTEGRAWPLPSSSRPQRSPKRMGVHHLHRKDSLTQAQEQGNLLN
UniProt Q99595: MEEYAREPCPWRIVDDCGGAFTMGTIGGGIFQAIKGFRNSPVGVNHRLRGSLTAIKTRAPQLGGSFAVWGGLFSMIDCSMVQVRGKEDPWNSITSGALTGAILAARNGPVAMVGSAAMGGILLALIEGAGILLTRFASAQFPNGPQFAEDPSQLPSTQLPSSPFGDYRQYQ
UniProt Q96CP7: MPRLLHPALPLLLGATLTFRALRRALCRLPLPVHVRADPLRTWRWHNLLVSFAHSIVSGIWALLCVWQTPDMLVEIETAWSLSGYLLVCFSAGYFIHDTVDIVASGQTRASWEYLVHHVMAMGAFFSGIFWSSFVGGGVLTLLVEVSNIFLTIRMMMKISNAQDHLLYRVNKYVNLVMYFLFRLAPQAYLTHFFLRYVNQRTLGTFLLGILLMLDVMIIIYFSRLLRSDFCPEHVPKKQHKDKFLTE
UniProt Q3ZCQ8: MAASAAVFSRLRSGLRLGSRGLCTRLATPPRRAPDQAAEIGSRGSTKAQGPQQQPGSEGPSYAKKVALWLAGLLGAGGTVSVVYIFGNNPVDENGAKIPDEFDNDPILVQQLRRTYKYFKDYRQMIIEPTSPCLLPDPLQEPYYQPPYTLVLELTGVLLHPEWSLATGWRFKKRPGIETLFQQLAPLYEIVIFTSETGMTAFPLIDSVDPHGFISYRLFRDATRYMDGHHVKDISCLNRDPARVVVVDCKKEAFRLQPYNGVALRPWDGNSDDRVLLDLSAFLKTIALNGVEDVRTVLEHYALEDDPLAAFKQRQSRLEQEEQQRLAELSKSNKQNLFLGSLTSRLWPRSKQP

Tests used:
Test in all cases: log2 fold change, soluble protein after heating vs DMSO (PISA); higher = thermal stabilisation; K562 cells, 10 uM, 30 min; active = over 0.2 and 3.5 SD of the protein, either way, in both replicates (recomputed)
[1] = compound: CC1=C(C=C(C=C1)NC(=O)C2=CC(=CC=C2)C(C)(C)C#N)NC3=CC4=C(C=C3)N=CN(C4=O)C
How it was run: (§1)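 K562 cells at 2×10^6 cells/mL were treated with 10 μM compound for 30 min. Aliquots were heated for 3 min across 48°C-58°C, pooled, and extracted in PBS with 0.5% NP-40 at 4°C; soluble protein was the supernatant after 21,000xg for 90 min. Soluble protein was quantified by TMTpro 16plex LC-MS/MS with channel sums equalised, and reported as log2 fold change in thermal stability against DMSO controls, with values from duplicates.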

[2] = compound: CC1=C(C=C(C=C1)NC(=O)C2=CC(=CC=C2)N(C)C)NC(=O)C3=CC=C(C=C3)O
How it was run: as §1

[3] = compound: CC1=CC=C(C=C1)SC2=C3C=C(SC3=CN=C2)C(=O)N
How it was run: as §1

[4] = compound: CC1=NC(=CC=C1)C2=C(N=C(N2)C(C)(C)C)C3=CC4=NC=CN=C4C=C3
How it was run: as §1

Nexturastat A = compound: CCCCN(Cc1ccc(C(=O)NO)cc1)C(=O)Nc1ccccc1 [Nexturastat A]
How it was run: as §1

vemurafenib = compound: CCCS(=O)(=O)Nc1ccc(F)c(C(=O)c2c[nH]c3ncc(-c4ccc(Cl)cc4)cc23)c1F [vemurafenib]
How it was run: as §1

[5] = compound: CCCS(=O)(=O)Nc1ccc(F)c(C(=O)c2c[nH]c3ncc(Cl)cc23)c1F
How it was run: as §1

[6] = compound: CCCc1cc(C)[nH]c(=O)c1CNC(=O)c1cc(-c2ccnc(N3CCN(C)CC3)c2)cc2c1cnn2C(C)C
How it was run: as §1

givinostat = compound: CCN(CC)Cc1ccc2cc(COC(=O)Nc3ccc(C(=O)NO)cc3)ccc2c1 [givinostat]
How it was run: as §1

barasertib = compound: CCN(CCCOc1ccc2c(Nc3cc(CC(=O)Nc4cccc(F)c4)[nH]n3)ncnc2c1)CCOP(=O)(O)O [barasertib]
How it was run: as §1

[7] = compound: CC[C@@H]1C(=O)N(C)c2cnc(Nc3ccc(C(=O)NC4CCN(C)CC4)cc3OC)nc2N1C1CCCC1
How it was run: as §1

volasertib = compound: CC[C@@H]1C(=O)N(C)c2cnc(Nc3ccc(C(=O)N[C@H]4CC[C@H](N5CCN(CC6CC6)CC5)CC4)cc3OC)nc2N1C(C)C [volasertib]
How it was run: as §1

[8] = compound: CC[C@H](C)N1C=C(C2=C(C=C(C=C21)C3=CN=C(C=C3)N4CCNCC4)C(=O)NCC5=C(C=C(NC5=O)C)C)C
How it was run: as §1

epoxomicin = compound: CC[C@H](C)[C@@H](C(=O)N[C@@H]([C@@H](C)O)C(=O)N[C@@H](CC(C)C)C(=O)[C@]1(CO1)C)NC(=O)[C@H]([C@@H](C)CC)N(C)C(=O)C [epoxomicin]
How it was run: as §1

[9] = compound: CCn1c(C(=O)N(C2CC2)C2CC2)cc2c3c(ncn3C)c(Nc3cc(C)n(C)n3)nc21
How it was run: as §1

[10] = compound: CCn1cc(-c2ccnc3[nH]c(-c4cccc(CN(C)C)c4)cc23)c(-c2ccc(NC(=O)N(C)C)cc2)n1
How it was run: as §1

[11] = compound: CN(C)CC(=O)Nc1ccc2[nH]c(=O)c3ccccc3c2c1
How it was run: as §1

rosiglitazone = compound: CN(CCOC1=CC=C(C=C1)C[C@H]2C(=O)NC(=O)S2)C3=CC=CC=N3 (racemic) [rosiglitazone]
How it was run: as §1

[12] = compound: CN1C2=C(C3=C1C(=O)N(N=C3)CC4=CC(=CC=C4)N)SC(=C2)S(=O)C
How it was run: as §1

[13] = compound: CN1CCC(CNc2ccc3ncc(-c4cccc(OC(F)(F)F)c4)n3n2)CC1
How it was run: as §1

Measured: log2 fold change

THUMPD2 (UniProt Q9BTF0)
inactive: [1] -0.004 | [2] -0.044 | [3] 0.065 | [4] 0.043 | Nexturastat A 0.075 | vemurafenib -0.042 | [5] 0.011 | [6] -0.014 | givinostat -0.025 | barasertib 0.034 | [7] 0.094 | volasertib 0.006 | [8] 0.049 | epoxomicin -0.032 | [9] -0.012 | [10] 0.145 | [11] -0.029 | rosiglitazone -0.043 | [12] 0.029 | [13] 0.039

TFG (UniProt Q92734)
inactive: [1] 0 | [2] -0.026 | [3] 0.012 | [4] 0.006 | Nexturastat A -0.011 | vemurafenib 0.004 | [5] 0.015 | [6] -0.026 | givinostat -0.002 | barasertib -0.01 | [7] -0.027 | volasertib 0.082 | [8] -0.011 | epoxomicin 0.023 | [9] 0.022 | [10] -0.006 | [11] -0.017 | rosiglitazone -0.012 | [12] -0.028 | [13] -0.054

TBC1D22B (UniProt Q9NU19)
inactive: [1] 0.015 | [2] 0.006 | [3] 0.019 | [4] 0.311 | Nexturastat A -0.201 | vemurafenib -0.062 | [5] 0.039 | [6] -0.008 | givinostat 0.087 | barasertib 0.044 | [7] -0.1 | volasertib -0.3 | [8] 0.047 | epoxomicin 0.078 | [9] -0.031 | [10] -0.036 | [11] 0.034 | rosiglitazone 0.026 | [12] 0.004 | [13] -0.113

THG1L (UniProt Q9NWX6)
inactive: [1] -0.017 | [2] 0.005 | [3] 0.013 | [4] 0.044 | Nexturastat A -0.047 | vemurafenib -0.004 | [5] 0.006 | [6] -0.028 | givinostat -0.02 | barasertib 0.015 | [7] 0.034 | volasertib -0.032 | [8] -0.036 | epoxomicin 0.024 | [9] 0.003 | [10] -0.024 | [11] 0.007 | rosiglitazone 0.042 | [12] -0.04 | [13] 0.014

TGM2 (UniProt P21980)
inactive: [1] -0.008 | [2] -0.007 | [3] 0.007 | [4] 0.025 | Nexturastat A -0.063 | vemurafenib -0.009 | [5] 0.006 | [6] -0.022 | givinostat -0.021 | barasertib 0.015 | [7] 0.013 | volasertib -0.021 | [8] 0.004 | epoxomicin 0.014 | [9] 0.01 | [10] -0.023 | [11] -0.014 | rosiglitazone 0.022 | [12] -0.079 | [13] -0.057

Reprinted at random: 2 entries already listed.
TBC1D22B (UniProt Q9NU19)
inactive: [1] 0.015 | [2] 0.006 | [3] 0.019 | [4] 0.311 | Nexturastat A -0.201 | vemurafenib -0.062 | [5] 0.039 | [6] -0.008 | givinostat 0.087 | barasertib 0.044 | [7] -0.1 | volasertib -0.3 | [8] 0.047 | epoxomicin 0.078 | [9] -0.031 | [10] -0.036 | [11] 0.034 | rosiglitazone 0.026 | [12] 0.004 | [13] -0.113

TFG (UniProt Q92734)
inactive: [1] 0 | [2] -0.026 | [3] 0.012 | [4] 0.006 | Nexturastat A -0.011 | vemurafenib 0.004 | [5] 0.015 | [6] -0.026 | givinostat -0.002 | barasertib -0.01 | [7] -0.027 | volasertib 0.082 | [8] -0.011 | epoxomicin 0.023 | [9] 0.022 | [10] -0.006 | [11] -0.017 | rosiglitazone -0.012 | [12] -0.028 | [13] -0.054

(continued)

TGOLN2 isoform 7 (UniProt O43493)
inactive: [1] 0.005 | [2] -0.003 | [3] -0.003 | [4] -0.005 | Nexturastat A -0.071 | vemurafenib -0.082 | [5] -0.073 | [6] -0.028 | givinostat -0.026 | barasertib -0.024 | [7] 0.021 | volasertib 0.081 | [8] -0.06 | epoxomicin 0.008 | [9] 0.011 | [10] -0.025 | [11] -0.047 | rosiglitazone -0.049 | [12] -0.018 | [13] -0.008

THUMPD3 (UniProt Q9BV44)
inactive: [1] 0.051 | [2] 0.025 | [3] 0.028 | [4] 0.047 | Nexturastat A -0.053 | vemurafenib 0.022 | [5] 0.053 | [6] -0.021 | givinostat -0.006 | barasertib 0.011 | [7] -0.035 | volasertib -0.062 | [8] 0.03 | epoxomicin 0.038 | [9] 0 | [10] -0.049 | [11] 0.026 | rosiglitazone -0.003 | [12] -0.049 | [13] -0.094

TCEA1 (UniProt P23193)
inactive: [1] 0.005 | [2] -0.003 | [3] -0.006 | [4] 0.038 | Nexturastat A -0.015 | vemurafenib 0.014 | [5] -0.026 | [6] 0.009 | givinostat -0.06 | barasertib 0.051 | [7] -0.063 | volasertib -0.013 | [8] 0.033 | epoxomicin 0.071 | [9] 0.013 | [10] 0.011 | [11] -0.024 | rosiglitazone 0.024 | [12] -0.019 | [13] -0.021

TERF2 (UniProt Q15554)
inactive: [1] 0.016 | [2] -0.098 | [3] -0.018 | [4] -0.074 | Nexturastat A 0.109 | vemurafenib -0.003 | [5] 0.024 | [6] 0.14 | givinostat 0.055 | barasertib -0.074 | [7] 0.094 | volasertib 0.053 | [8] 0.186 | epoxomicin -0.126 | [9] -0.059 | [10] 0.1 | [11] -0.01 | rosiglitazone 0.003 | [12] -0.084 | [13] 0.083

TIMM23 (UniProt O14925)
inactive: [1] -0.022 | [2] 0.001 | [3] -0.024 | [4] 0.111 | Nexturastat A 0.013 | vemurafenib 0.053 | [5] 0.044 | [6] -0.048 | givinostat -0.005 | barasertib -0.022 | [7] -0.001 | volasertib 0.056 | [8] -0.02 | epoxomicin 0.013 | [9] 0.015 | [10] -0.002 | [11] -0.001 | rosiglitazone 0.041 | [12] -0.073 | [13] 0.099

THOC1 (UniProt Q96FV9)
inactive: [1] 0.108 | [2] -0.05 | [3] -0.026 | [4] -0.069 | Nexturastat A 0.173 | vemurafenib 0.01 | [5] 0.073 | [6] 0.012 | givinostat 0.091 | barasertib 0.008 | [7] -0.034 | volasertib -0.017 | [8] 0.004 | epoxomicin -0.008 | [9] 0.017 | [10] -0.046 | [11] -0.015 | rosiglitazone 0.043 | [12] 0.119 | [13] -0.039

TJAP1 (UniProt Q5JTD0)
inactive: [1] 0.02 | [2] 0.259 | [3] -0.038 | [4] -0.115 | Nexturastat A -0.041 | vemurafenib 0.051 | [5] -0.074 | [6] 0.01 | givinostat 0.002 | barasertib -0.094 | [7] 0.118 | volasertib -0.035 | [8] 0.05 | epoxomicin -0.01 | [9] -0.013 | [10] 0.134 | [11] -0.051 | rosiglitazone -0.027 | [12] -0.101 | [13] -0.108

TIMM17A (UniProt Q99595)
inactive: [1] 0.022 | [2] 0.031 | [3] 0.062 | [4] -0.026 | Nexturastat A -0.069 | vemurafenib 0.025 | [5] 0.021 | [6] -0.047 | givinostat 0.037 | barasertib -0.009 | [7] 0.051 | volasertib 0.088 | [8] -0.084 | epoxomicin 0.009 | [9] -0.033 | [10] 0.05 | [11] -0.029 | rosiglitazone -0.045 | [12] -0.05 | [13] 0.009

TLCD1 (UniProt Q96CP7)
inactive: [1] 0.05 | [2] 0.081 | [3] 0.015 | [4] 0.012 | Nexturastat A 0.161 | vemurafenib -0.048 | [5] 0.072 | [6] -0.079 | givinostat 0.072 | barasertib 0.063 | [7] -0.025 | volasertib -0.173 | [8] -0.041 | epoxomicin -0.019 | [9] 0.159 | [10] -0.089 | [11] 0.051 | rosiglitazone 0.01 | [12] 0.036 | [13] -0.17

TIMM50 isoform 2 (UniProt Q3ZCQ8)
inactive: [1] -0.017 | [2] -0.035 | [3] -0.028 | [4] 0.02 | Nexturastat A -0.022 | vemurafenib 0.02 | [5] 0.006 | [6] -0.007 | givinostat -0.032 | barasertib 0.061 | [7] 0.029 | volasertib -0.158 | [8] 0.021 | epoxomicin 0.035 | [9] -0.004 | [10] -0.008 | [11] 0.009 | rosiglitazone 0.02 | [12] -0.031 | [13] 0.121
